Experimental data reported in patent publication US20230340027A1 (TECHNION RESEARCH & DEVELOPMENT FOUNDATION LIMITED, priority 2020, published 2023).

Experiment: general procedure: Fmoc solid-phase peptide synthesis; Rink amide resin (0.26 mmol/g); HCTU/DIEA
Conditions: for conjugation yield: conjugation step

Substance	conjugation yield [%]	step yield (late stage modification step) [%]
(Ub4_ix_S7C)2 (WLYLDDCGDWWICG; cyclised or stapled)	23	–
(Ub4_ix_S7C)2CH2 (WLYLDDCGDWWICG; cyclised or stapled)	18	–
Ub4_ix_S7C (WLYLDDCGDWWICG; cyclic)	–	42
